Literature values in US20090196930A1, “AEROSOLIZED NITRITE AND NITRIC OXIDE -DONATING COMPOUNDS AND USES THEREOF” (Aires Pharmaceuticals, Inc., priority 2007, published 2009).
For at least one compound, name, drawing or mass did not settle the structure.

Conditions: cited from earlier work

In the case of `CC(=O)N[C@@H](CS)C(=O)O` [ACC], the pH is given as 2.2.
